Patent publication US20250243277A1 (AVACTA LIFE SCIENCES, published 2025)
These are yes or no findings as the source states them, for the method shown. Some binding calls cover weakened binding; strength is not graded here.

Sequences of proteins named here, by UniProt entry; tags and fusion partners are left off. Residues count along the entry.
UniProt Q9NZQ7, residues 19-239: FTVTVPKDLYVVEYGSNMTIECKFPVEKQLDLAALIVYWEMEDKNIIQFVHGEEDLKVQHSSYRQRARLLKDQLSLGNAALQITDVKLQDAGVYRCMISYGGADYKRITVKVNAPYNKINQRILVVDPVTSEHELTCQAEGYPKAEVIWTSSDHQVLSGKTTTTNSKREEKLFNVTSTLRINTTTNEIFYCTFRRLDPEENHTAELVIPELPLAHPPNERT

B1: Clone 3 (designed binder)
chain: MIPGGLSEAKPATPEIQEIVDKVKPQLEEKTGETYGKLEAVQYKTQVVPNQHFIVPYGTNYYIKVRAGDNKYMHLKVFKSLHWNGGYHGHEDLVLTGYQVDKNKDDELTGF
B2: Clone 189 (designed binder)
chain: MIPGGLSEAKPATPEIQEIVDKVKPQLEEKTGETYGKLEAVQYKTQVVFQSTDSFWHGTNYYIKVRAGDNKYMHLKVFKSLFVENWQKRTEDLVLTGYQVDKNKDDELTGF
B3: Clone 205 (designed binder)
chain: MIPGGLSEAKPATPEIQEIVDKVKPQLEEKTGETYGKLEAVQYKTQVVVFLSEIHWYGTNYYIKVRAGDNKYMHLKVFKSLRINNSGLSREDLVLTGYQVDKNKDDELTGF
B4: Clone 62 (designed binder)
chain: MIPGGLSEAKPATPEIQEIVDKVKPQLEEKTGETYGKLEAVQYKTQVVFRQHFPNFSGTNYYIKVRAGDNKYMHLKVFKSLNGLEDPTQDEDLVLTGYQVDKNKDDELTGF
B5: Clone 67 (designed binder)
chain: MIPGGLSEAKPATPEIQEIVDKVKPQLEEKTGETYGKLEAVQYKTQVVSTKNLWRWSGTNYYIKVRAGDNKYMHLKVFKSLFNGAGGPDSEDLVLTGYQVDKNKDDELTGF
B6: Clone 190 (designed binder)
chain: MIPGGLSEAKPATPEIQEIVDKVKPQLEEKTGETYGKLEAVQYKTQVVGVKSTFHWSGTNYYIKVRAGDNKYMHLKVFKSLFNNHPLSPDEDLVLTGYQVDKNKDDELTGF
B7: Clone 106 (designed binder)
chain: MIPGGLSEAKPATPEIQEIVDKVKPQLEEKTGETYGKLEAVQYKTQVDFSDLEWEGQGTNYYIKVRAGDNKYMHLKVFKSLEKKWGWIYIEDLVLTGYQVDKNKDDELTGF
B8: Clone 9 (designed binder)
chain: MIPGGLSEAKPATPEIQEIVDKVKPQLEEKTGETYGKLEAVQYKTQVVQSHVEGEWLGTNYYIKVRAGDNKYMHLKVFKSLFFAIHRLGIEDLVLTGYQVDKNKDDELTGF
B9: Clone 207 (designed binder)
chain: MIPGGLSEAKPATPEIQEIVDKVKPQLEEKTGETYGKLEAVQYKTQVVDTKTPWLWTGTNYYIKVRAGDNKYMHLKVFKSLFLKILAEDDEDLVLTGYQVDKNKDDELTGF
B10: Clone 236 (designed binder)
chain: MIPGGLSEAKPATPEIQEIVDKVKPQLEEKTGETYGKLEAVQYKTQVVRDGTFWDFWGTNYYIKVRAGDNKYMHLKVFKSLSQDYNGGQAEDLVLTGYQVDKNKDDELTGF
B11: Clone 89 (designed binder)
chain: MIPGGLSEAKPATPEIQEIVDKVKPQLEEKTGETYGKLEAVQYKTQVVDFRVAWHWVGTNYYIKVRAGDNKYMHLKVFKSLFNHRPGKPDEDLVLTGYQVDKNKDDELTGF
B12: Clone 233 (designed binder)
chain: MIPGGLSEAKPATPEIQEIVDKVKPQLEEKTGETYGKLEAVQYKTQVVLRYHFQHFPGTNYYIKVRAGDNKYMHLKVFKSLDGQGALSLPEDLVLTGYQVDKNKDDELTGF
B13: Clone 201 (designed binder)
chain: MIPGGLSEAKPATPEIQEIVDKVKPQLEEKTGETYGKLEAVQYKTQVVQRAHFKQWYGTNYYIKVRAGDNKYMHLKVFKSLPGEPHHILDEDLVLTGYQVDKNKDDELTGF
B14: Clone 96 (designed binder)
chain: MIPGGLSEAKPATPEIQEIVDKVKPQLEEKTGETYGKLEAVQYKTQVDFNQSRHGHGTNYYIKVRAGDNKYMHLKVFKSLELLHGLWWVEDLVLTGYQVDKNKDDELTGF
B15: Clone 224 (designed binder)
chain: MIPGGLSEAKPATPEIQEIVDKVKPQLEEKTGETYGKLEAVQYKTQVVTRRHFVQFTGTNYYIKVRAGDNKYMHLKVFKSLDEPATPTYLEDLVLTGYQVDKNKDDELTGF
B16: Clone 253 (designed binder)
chain: MIPGGLSEAKPATPEIQEIVDKVKPQLEEKTGETYGKLEAVQYKTQVVTRPHFPGWNGTNYYIKVRAGDNKYMHLKVFKSLDFDHNFIADEDLVLTGYQVDKNKDDELTGF
B17: Clone 129 (designed binder)
chain: MIPGGLSEAKPATPEIQEIVDKVKPQLEEKTGETYGKLEAVQYKTQVVQRVHFPDWPGTNYYIKVRAGDNKYMHLKVFKSLNKENQDEEDEDLVLTGYQVDKNKDDELTGF
B18: Clone 38 (designed binder)
chain: MIPGGLSEAKPATPEIQEIVDKVKPQLEEKTGETYGKLEAVQYKTQVVRVPLDSNKWGTNYYIKVRAGDNKYMHLKVFKSLFRVRDYSFLEDLVLTGYQVDKNKDDELTGF
B19: Clone 100 (designed binder)
chain: MIPGGLSEAKPATPEIQEIVDKVKPQLEEKTGETYGKLEAVQYKTQVDHTDVDWHFWGTNYYIKVRAGDNKYMHLKVFKSLAPAAPPWEFEDLVLTGYQVDKNKDDELTGF
B20: Clone 30 (designed binder)
chain: MIPGGLSEAKPATPEIQEIVDKVKPQLEEKTGETYGKLEAVQYKTQVVKYVVQASKVGTNYYIKVRAGDNKYMHLKVFKSLYGQKDGQKEEDLVLTGYQVDKNKDDELTGF
B21: Clone 32 (designed binder)
chain: MIPGGLSEAKPATPEIQEIVDKVKPQLEEKTGETYGKLEAVQYKTQVVKYVVQASKVGTNYYIKVRAGDNKYMHLKVFKSLYGQKDGQKEEDLVLTGYQVDKNKDDELTGF
B22: Clone 179 (designed binder)
chain: MIPGGLSEAKPATPEIQEIVDKVKPQLEEKTGETYGKLEAVQYKTQVVFKTDDARWIGTNYYIKVRAGDNKYMHLKVFKSLFNYNKTEHTEDLVLTGYQVDKNKDDELTGF
B23: Clone 26 (designed binder)
chain: MIPGGLSEAKPATPEIQEIVDKVKPQLEEKTGETYGKLEAVQYKTQVVFVFLEVKWDGTNYYIKVRAGDNKYMHLKVFKSLRKERHQFDIEDLVLTGYQVDKNKDDELTGF
B24: Clone 15 (designed binder)
chain: MIPGGLSEAKPATPEIQEIVDKVKPQLEEKTGETYGKLEAVQYKTQVVPYFWFQHAKGTNYYIKVRAGDNKYMHLKVFKSLWQSLLDKNEEDLVLTGYQVDKNKDDELTGF
B25: Clone 168 (designed binder)
chain: MIPGGLSEAKPATPEIQEIVDKVKPQLEEKTGETYGKLEAVQYKTQVVWFDTWPVPEGTNYYIKVRAGDNKYMHLKVFKSLNWNDHLSTYEDLVLTGYQVDKNKDDELTGF

Each binder was assayed against T1, human PD-L1-Fc (R&D Systems) (human, UniProt Q9NZQ7 19-239) (assay: soluble Affimer ELISA).
T1 construct: Bought from R&D Systems; Biotinylated in-house for the phage selection; also called huPD-L1-Fc; human PD-L1-Fc antigen; not shown: Fc part of the bought fusion

binding, binds:
B1, B2, B3, B4, B5, B6, B7, B8, B9, B10, B11, B12, B13, B14, B15, B16, B17, B18, B19, B20, B21, B22, B23, B24, B25
